B1: SWISS-PROT: P34955 (Bos taurus) Alpha-1-antiproteinase precursor (protein, UniProt P34955 25-416, looked up)
Alpha-1-antiproteinase: GVLQGHAVQETDDTSHQEAACHKIAPNLANFAFSIYHHLAHQSNTSNIFFSPVSIASAFAMLSLGAKGNTHTEILKGLGFNLTELAEAEIHKGFQHLLHTLNQPNHQLQLTTGNGLFINESAKLVDTFLEDVKNLYHSEAFSINFRDAEEAKKKINDYVEKGSHGKIVELVKVLDPNTVFALVNYISFKGKWEKPFEMKHTTERDFHVDEQTTVKVPMMNRLGMFDLHYCDKLASWVLLLDYVGNVTACFILPDLGKLQQLEDKLNNELLAKFLEKKYASSANLHLPKLSISETYDLKSVLGDVGITEVFSDRADLSGITKEQPLKVSKALHKAALTIDEKGTEAVGSTFLEAIPMSLPPDVEFNRPFLCILYDRNTKSPLFVGKVVNPTQA
B2: Hypoxia up-regulated protein 1 (protein, UniProt Q9Y4L1 33-999, looked up)
Hypoxia up-regulated protein 1: LAVMSVDLGSESMKVAIVKPGVPMEIVLNKESRRKTPVIVTLKENERFFGDSAASMAIKNPKATLRYFQHLLGKQADNPHVALYQARFPEHELTFDPQRQTVHFQISSQLQFSPEEVLGMVLNYSRSLAEDFAEQPIKDAVITVPVFFNQAERRAVLQAARMAGLKVLQLINDNTATALSYGVFRRKDINTTAQNIMFYDMGSGSTVCTIVTYQMVKTKEAGMQPQLQIRGVGFDRTLGGLEMELRLRERLAGLFNEQRKGQRAKDVRENPRAMAKLLREANRLKTVLSANADHMAQIEGLMDDVDFKAKVTRVEFEELCADLFERVPGPVQQALQSAEMSLDEIEQVILVGGATRVPRVQEVLLKAVGKEELGKNINADEAAAMGAVYQAAALSKAFKVKPFVVRDAVVYPILVEFTREVEEEPGIHSLKHNKRVLFSRMGPYPQRKVITFNRYSHDFNFHINYGDLGFLGPEDLRVFGSQNLTTVKLKGVGDSFKKYPDYESKGIKAHFNLDESGVLSLDRVESVFETLVEDSAEEESTLTKLGNTISSLFGGGTTPDAKENGTDTVQEEEESPAEGSKDEPGEQVELKEEAEAPVEDGSQPPPPEPKGDATPEGEKATEKENGDKSEAQKPSEKAEAGPEGVAPAPEGEKKQKPARKRRMVEEIGVELVVLDLPDLPEDKLAQSVQKLQDLTLRDLEKQEREKAANSLEAFIFETQDKLYQPEYQEVSTEEQREEISGKLSAASTWLEDEGVGATTVMLKEKLAELRKLCQGLFFRVEERKKWPERLSALDNLLNHSSMFLKGARLIPEMDQIFTEVEMTTLEKVINETWAWKNATLAEQAKLPATEKPVLLSKDIEAKMMALDREVQYLLNKAKFTKPRPRPKDKNGTRAEPPLNASASDQGEKVIPPAGQTEDAEPISEPEKVETGSEPGDTEPLELGGPGAEPEQKEQSTGQKRPLKNDEL
B3: Heterogeneous nuclear ribonucleoproteins A2/B1 (protein, UniProt P22626 1-353, looked up)
Heterogeneous nuclear …: MEKTLETVPLERKKREKEQFRKLFIGGLSFETTEESLRNYYEQWGKLTDCVVMRDPASKRSRGFGFVTFSSMAEVDAAMAARPHSIDGRVVEPKRAVAREESGKPGAHVTVKKLFVGGIKEDTEEHHLRDYFEEYGKIDTIEIITDRQSGKKRGFGFVTFDDHDPVDKIVLQKYHTINGHNAEVRKALSRQEMQEVQSSRSGRGGNFGFGDSRGGGGNFGPGPGSNFRGGSDGYGSGRGFGDGYNGYGGGPGGGNFGGSPGYGGGRGGYGGGGPGYGNQGGGYGGGYDNYGGGNYGSGNYNDFGNYNQQPSNYGPMKSGNFGGSRNMGGPYGGGNYGPGGSGGSGGYGGRSRY
B4: SWISS-PROT: Q9DCV7 Tax_Id = 10090 Gene_Symbol = Krt7 Keratin, type II cytoskeletal 7 (protein, UniProt Q9DCV7 2-457, looked up)
Keratin, type II cytoskeletal …: SIHFSSRSTAYPGRGAQVRLSSGRASFGSRSLYGLGSSRPRVAVRSAYGGPVGAGIREITINQSLLAPLSVDIDPTIQQVRQEEREQIKTLNNKFASFIDKVRFLEQQNKMLETKWALLQEQKSAKSSQLPRIFEAQIAGLRQQLETLQLDGGRLEVELRNMQDVVEDFKNKYEEEINRRTAAENEFVLLKKDVDAAYTNKVELEAKADSLQDEINFLKTLHETELAELQSQISDTSVVLSMDNSRSLDLDGIIADVKAQYEEMANHSRAEAEAWYQTKFETLQAQAGKHGDDLRNTRNEIAEMNRSIQRLQAEIDTLKNQRAKLESSIAEAEEQGELAIKDAHAKQGELEAALQKAKQDVARQLREYQELLNTKLALDIEIATYRKLLEGEESRLSGDGMGPVNISVVNSTGGNGGKLIFGGTMGSNALSFSGGPGALRAYSIKTTSTTRRGTHN
B5: Ribonuclease inhibitor (protein, UniProt P13489 2-461, looked up)
Ribonuclease inhibitor: SLDIQSLDIQCEELSDARWAELLPLLQQCQVVRLDDCGLTEARCKDISSALRVNPALAELNLRSNELGDVGVHCVLQGLQTPSCKIQKLSLQNCCLTGAGCGVLSSTLRTLPTLQELHLSDNLLGDAGLQLLCEGLLDPQCRLEKLQLEYCSLSAASCEPLASVLRAKPDFKELTVSNNDINEAGVRVLCQGLKDSPCQLEALKLESCGVTSDNCRDLCGIVASKASLRELALGSNKLGDVGMAELCPGLLHPSSRLRTLWIWECGITAKGCGDLCRVLRAKESLKELSLAGNELGDEGARLLCETLLEPGCQLESLWVKSCSFTAACCSHFSSVLAQNRFLLELQISNNRLEDAGVRELCQGLGQPGSVLRVLWLADCDVSDSSCSSLAATLLANHSLRELDLSNNCLGDAGILQLVESVRQPGCLLEQLVLYDIYWSEEMEDRLQALEKDKPSLRVIS
B6: Nidogen-1 (protein, UniProt P14543 29-1247, looked up)
Nidogen-1: LSRQELFPFGPGQGDLELEDGDDFVSPALELSGALRFYDRSDIDAVYVTTNGIIATSEPPAKESHPGLFPPTFGAVAPFLADLDTTDGLGKVYYREDLSPSITQRAAECVHRGFPEISFQPSSAVVVTWESVAPYQGPSRDPDQKGKRNTFQAVLASSDSSSYAIFLYPEDGLQFHTTFSKKENNQVPAVVAFSQGSVGFLWKSNGAYNIFANDRESVENLAKSSNSGQQGVWVFEIGSPATTNGVVPADVILGTEDGAEYDDEDEDYDLATTRLGLEDVGTTPFSYKALRRGGADTYSVPSVLSPRRAATERPLGPPTERTRSFQLAVETFHQQHPQVIDVDEVEETGVVFSYNTDSRQTCANNRHQCSVHAECRDYATGFCCSCVAGYTGNGRQCVAEGSPQRVNGKVKGRIFVGSSQVPIVFENTDLHSYVVMNHGRSYTAISTIPETVGYSLLPLAPVGGIIGWMFAVEQDGFKNGFSITGGEFTRQAEVTFVGHPGNLVIKQRFSGIDEHGHLTIDTELEGRVPQIPFGSSVHIEPYTELYHYSTSVITSSSTREYTVTEPERDGASPSRIYTYQWRQTITFQECVHDDSRPALPSTQQLSVDSVFVLYNQEEKILRYALSNSIGPVREGSPDALQNPCYIGTHGCDTNAACRPGPRTQFTCECSIGFRGDGRTCYDIDECSEQPSVCGSHTICNNHPGTFRCECVEGYQFSDEGTCVAVVDQRPINYCETGLHNCDIPQRAQCIYTGGSSYTCSCLPGFSGDGQACQDVDECQPSRCHPDAFCYNTPGSFTCQCKPGYQGDGFRCVPGEVEKTRCQHEREHILGAAGATDPQRPIPPGLFVPECDAHGHYAPTQCHGSTGYCWCVDRDGREVEGTRTRPGMTPPCLSTVAPPIHQGPAVPTAVIPLPPGTHLLFAQTGKIERLPLEGNTMRKTEAKAFLHVPAKVIIGLAFDCVDKMVYWTDITEPSIGRASLHGGEPTTIIRQDLGSPEGIAVDHLGRNIFWTDSNLDRIEVAKLDGTQRRVLFETDLVNPRGIVTDSVRGNLYWTDWNRDNPKIETSYMDGTNRRILVQDDLGLPNGLTFDAFSSQLCWVDAGTNRAECLNPSQPSRRKALEGLQYPFAVTSYGKNLYFTDWKMNSVVALDLAISKETDAFQPHKQTRLYGITTALSQCPQGHNYCSVNNGGCTHLCLATPGSRTCRCPDNTLGVDCIEQK
B7: High mobility group protein HMG-I/HMG-Y (protein, UniProt P17096 2-107, looked up)
High mobility group protein …: SESSSKSSQPLASKQEKDGTEKRGRGRPRKQPPVSPGTALVGSQKEPSEVPTPKRPRGRPKGSKNKGAAKTRKTTTTPGRKPRGRPKKLEKEEEEGISQESSEEEQ
B8: Staphylococcal nuclease domain-containing protein 1 (protein, UniProt Q7KZF4 2-910, looked up)
Staphylococcal nuclease …: ASSAQSGGSSGGPAVPTVQRGIIKMVLSGCAIIVRGQPRGGPPPERQINLSNIRAGNLARRAAATQPDAKDTPDEPWAFPAREFLRKKLIGKEVCFTIENKTPQGREYGMIYLGKDTNGENIAESLVAEGLATRREGMRANNPEQNRLSECEEQAKAAKKGMWSEGNGSHTIRDLKYTIENPRHFVDSHHQKPVNAIIEHVRDGSVVRALLLPDYYLVTVMLSGIKCPTFRREADGSETPEPFAAEAKFFTESRLLQRDVQIILESCHNQNILGTILHPNGNITELLLKEGFARCVDWSIAVYTRGAEKLRAAERFAKERRLRIWRDYVAPTANLDQKDKQFVAKVMQVLNADAIVVKLNSGDYKTIHLSSIRPPRLEGENTQDKNKKLRPLYDIPYMFEAREFLRKKLIGKKVNVTVDYIRPASPATETVPAFSERTCATVTIGGINIAEALVSKGLATVIRYRQDDDQRSSHYDELLAAEARAIKNGKGLHSKKEVPIHRVADISGDTQKAKQFLPFLQRAGRSEAVVEYVFSGSRLKLYLPKETCLITFLLAGIECPRGARNLPGLVQEGEPFSEEATLFTKELVLQREVEVEVESMDKAGNFIGWLHIDGANLSVLLVEHALSKVHFTAERSSYYKSLLSAEEAAKQKKEKVWAHYEEQPVEEVMPVLEEKERSASYKPVFVTEITDDLHFYVQDVETGTQLEKLMENMRNDIASHPPVEGSYAPRRGEFCIAKFVDGEWYRARVEKVESPAKIHVFYIDYGNREVLPSTRLGTLSPAFSTRVLPAQATEYAFAFIQVPQDDDARTDAVDSVVRDIQNTQCLLNVEHLSAGCPHVTLQFADSKGDVGLGLVKEGLVMVEVRKEKQFQKVITEYLNAQESAKSARLNLWRYGDFRADDADEFGYSR

Test: Composition of amniotic fluid cell-derived ECM by mass spectrometry (total spectra count)
Settings: protein component found by mass spectrometry in amniotic fluid cell-derived ECM Matrix A (Example 1)

Which “Total Spectra Count Matrix A” value does the source give for B1 here?
The value was 17.

With B2 as the molecule, how does the “Total Spectra Count Matrix A” value read?
Its value is 16.

Which “Total Spectra Count Matrix A” value does the source give for B3 here?
Its value is 15.

With B4 as the molecule, how does the “Total Spectra Count Matrix A” value read?
The value was 14.

For B5, which “Total Spectra Count Matrix A” value is on record?
Its value is 14.

For B6, which “Total Spectra Count Matrix A” value is on record?
Its value is 16.

For B7, which “Total Spectra Count Matrix A” value is on record?
The value was 16.

Which “Total Spectra Count Matrix A” value does the source give for B8 here?
The value was 15.

Same assay, conditions: protein component found by mass spectrometry in amniotic fluid cell-derived ECM Matrix B (Example 1)

With B1 as the molecule, how does the “Total Spectra Count Matrix B” value read?
Its value is 66.

For B2, which “Total Spectra Count Matrix B” value is on record?
The value was 37.

With B3 as the molecule, how does the “Total Spectra Count Matrix B” value read?
Its value is 58.

Which “Total Spectra Count Matrix B” value does the source give for B4 here?
The value was 0.

For B5, which “Total Spectra Count Matrix B” value is on record?
Its value is 0.

For B6, which “Total Spectra Count Matrix B” value is on record?
Its value is 56.

Which “Total Spectra Count Matrix B” value does the source give for B7 here?
The value was 52.

For B8, which “Total Spectra Count Matrix B” value is on record?
Its value is 33.

Same assay, conditions: protein component found by mass spectrometry in amniotic fluid cell-derived ECM Matrix C (Example 1)

Which “Total Spectra Count Matrix C” value does the source give for B1 here?
Its value is 19.

With B2 as the molecule, how does the “Total Spectra Count Matrix C” value read?
Its value is 0.

With B3 as the molecule, how does the “Total Spectra Count Matrix C” value read?
The value was 6.

For B4, which “Total Spectra Count Matrix C” value is on record?
Its value is 14.

With B5 as the molecule, how does the “Total Spectra Count Matrix C” value read?
The value was 1.

With B6 as the molecule, how does the “Total Spectra Count Matrix C” value read?
The value was 1.

With B7 as the molecule, how does the “Total Spectra Count Matrix C” value read?
The value was 7.

For B8, which “Total Spectra Count Matrix C” value is on record?
Its value is 0.

Same assay, conditions: protein component found by mass spectrometry in amniotic fluid cell-derived ECM Matrix D (Example 1)

With B1 as the molecule, how does the “Total Spectra Count Matrix D” value read?
The value was 16.

With B2 as the molecule, how does the “Total Spectra Count Matrix D” value read?
The value was 18.

For B3, which “Total Spectra Count Matrix D” value is on record?
Its value is 20.

With B4 as the molecule, how does the “Total Spectra Count Matrix D” value read?
The value was 18.

With B5 as the molecule, how does the “Total Spectra Count Matrix D” value read?
Its value is 8.

For B6, which “Total Spectra Count Matrix D” value is on record?
The value was 7.

With B7 as the molecule, how does the “Total Spectra Count Matrix D” value read?
Its value is 11.

For B8, which “Total Spectra Count Matrix D” value is on record?
Its value is 6.
